# Data as given in PubChem BioAssay AID1224826 (NIAID, 2016).
# Screen: 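Knock-downs that raise or lower Tnf reporter signal after endotoxin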 (primary screen)
# Cells: RAW264.7 G9 macrophages from mouse bearing reporters for p65 (GFP) and the Tnf promoter (mCherry)
# Knock-down reagent: siRNA pool against mouse genes, 100 nM
# Time to read-out: 16 h of LPS stimulation, after 2 days of siRNA transfection
# Challenge: bacterial lipopolysaccharide (Salmonella minnesota R595), 10 ng/ml
# Measurement: 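Nuclear mCherry signal of the Tnf promoter reporter measured by imaging after background removal, scaled to each plate median and turned into robust z-scores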
# Direction: Tnf reporter robust z-score: higher = stronger Tnf promoter reporter signal after LPS; Tnf reporter intensity: higher = stronger Tnf promoter reporter signal
# Hit rule: 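Called active when robust z-score is at most -1.3, matching the median of the Tlr4 knock-down control, or over 3; control wells and wells with under 50 cells never active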
# Calls: active = Tnf reporter clearly lowered or raised; inactive = no clear change in Tnf reporter
# Shown is an unselected part of about 17,000 deposited reagents. Of all reagents, about 1,110 (6.6%) were called active. 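Active means lowered or raised reporter signal; replicate intensities are raw and not normalised per plate.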
target,Tnf reporter robust z-score,fewer than 50 cells in well,"Tnf reporter intensity, replicate 1","Tnf reporter intensity, replicate 2",outcome
Asgr2 (GeneID 11890),-0.2,enough cells in well,113,182,inactive
Fhl3 (GeneID 14201),-0.55,enough cells in well,211,105,inactive
Add2 (GeneID 11519),0.19,enough cells in well,176,184,inactive
Otud7a (GeneID 170711),-1.36,enough cells in well,121,93,active
Optn (GeneID 71648),0.65,enough cells in well,295,221,inactive
Sec24d (GeneID 69608),0.83,enough cells in well,139,119,inactive
Egf (GeneID 13645),-1.03,enough cells in well,160,139,inactive
Mobp (GeneID 17433),5.18,enough cells in well,484,368,active
Or10ag52 (GeneID 404327),-0.89,enough cells in well,128,108,inactive
Gpr174 (GeneID 213439),-0.96,enough cells in well,126,234,inactive
Slc22a17 (GeneID 59049),1.47,enough cells in well,128,176,inactive
Trib1 (GeneID 211770),,fewer than 50 cells per well; well left out of calls,144,103,inactive
Eri1 (GeneID 67276),2.14,enough cells in well,216,149,inactive
Lpin1 (GeneID 14245),-1.17,enough cells in well,118,79,inactive
Acot12 (GeneID 74156),-0.38,enough cells in well,117,153,inactive
Bccip (GeneID 66165),-1.24,enough cells in well,90,86.9,inactive
Tmc4 (GeneID 353499),,fewer than 50 cells per well; well left out of calls,112,110,inactive
Adi1 (GeneID 104923),-0.61,enough cells in well,170,143,inactive
Ttyh3 (GeneID 78339),2.04,enough cells in well,287,80.6,inactive
Rbm3 (GeneID 19652),1.26,enough cells in well,201,163,inactive
Tspyl3 (GeneID 241732),-0.47,enough cells in well,153,130,inactive
Haglr (GeneID 102634678),1.42,enough cells in well,352,190,inactive
Phc1 (GeneID 13619),-0.09,enough cells in well,242,184,inactive
Plcl2 (GeneID 224860),-0.15,enough cells in well,128,64.4,inactive
9930014A18Rik (GeneID 320469),-0.04,enough cells in well,205,158,inactive
Vmn2r42 (GeneID 22310),0.44,enough cells in well,153,89,inactive

Next part (4 carried over from the part before).
target,Tnf reporter robust z-score,fewer than 50 cells in well,"Tnf reporter intensity, replicate 1","Tnf reporter intensity, replicate 2",outcome
Phc1 (GeneID 13619),-0.09,enough cells in well,242,184,inactive
Plcl2 (GeneID 224860),-0.15,enough cells in well,128,64.4,inactive
9930014A18Rik (GeneID 320469),-0.04,enough cells in well,205,158,inactive
Vmn2r42 (GeneID 22310),0.44,enough cells in well,153,89,inactive
Cdca7l (GeneID 217946),1.64,enough cells in well,295,351,inactive
Rnf152 (GeneID 320311),0.93,enough cells in well,185,244,inactive
Cygb (GeneID 114886),-0.07,enough cells in well,218,132,inactive
Wasf1 (GeneID 83767),-0.91,enough cells in well,202,141,inactive
Acsf2 (GeneID 264895),0.08,enough cells in well,205,221,inactive
Wdr3 (GeneID 269470),-0.29,enough cells in well,220,220,inactive
Chek1 (GeneID 12649),0.6,enough cells in well,256,173,inactive
Or56a3 (GeneID 259046),1.44,enough cells in well,159,176,inactive
Raf1 (GeneID 110157),-0.93,enough cells in well,121,123,inactive
Cpb1 (GeneID 76703),-0.69,enough cells in well,170,166,inactive
Dus4l (GeneID 71916),-0.24,enough cells in well,162,48.5,inactive
Papolb (GeneID 56522),-0.98,enough cells in well,116,72.4,inactive
Kctd4 (GeneID 67516),-0.38,enough cells in well,176,109,inactive
Nup160 (GeneID 59015),-0.94,enough cells in well,127,104,inactive
